We go through 27 targets from the supplement of paper PMC10849652.

Chains of the proteins cited; added tags and fusions are not shown. Lines headed by an entry give the natural chain unless they say otherwise; changes in a name come on top.
UniProt Q5T7W7: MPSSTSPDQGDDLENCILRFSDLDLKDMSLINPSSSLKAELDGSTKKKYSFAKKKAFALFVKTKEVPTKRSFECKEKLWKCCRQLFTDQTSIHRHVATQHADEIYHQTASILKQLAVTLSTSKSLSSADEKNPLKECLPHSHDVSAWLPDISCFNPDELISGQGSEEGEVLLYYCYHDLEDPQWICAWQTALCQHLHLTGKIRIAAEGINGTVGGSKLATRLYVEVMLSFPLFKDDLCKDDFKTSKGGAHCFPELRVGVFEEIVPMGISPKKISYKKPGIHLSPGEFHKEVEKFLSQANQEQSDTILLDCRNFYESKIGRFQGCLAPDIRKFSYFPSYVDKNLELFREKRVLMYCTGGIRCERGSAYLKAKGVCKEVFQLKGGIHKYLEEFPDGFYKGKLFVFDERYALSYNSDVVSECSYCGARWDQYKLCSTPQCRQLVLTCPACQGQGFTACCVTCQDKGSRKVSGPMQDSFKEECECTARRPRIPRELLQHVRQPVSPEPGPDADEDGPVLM
UniProt Q8WVT3: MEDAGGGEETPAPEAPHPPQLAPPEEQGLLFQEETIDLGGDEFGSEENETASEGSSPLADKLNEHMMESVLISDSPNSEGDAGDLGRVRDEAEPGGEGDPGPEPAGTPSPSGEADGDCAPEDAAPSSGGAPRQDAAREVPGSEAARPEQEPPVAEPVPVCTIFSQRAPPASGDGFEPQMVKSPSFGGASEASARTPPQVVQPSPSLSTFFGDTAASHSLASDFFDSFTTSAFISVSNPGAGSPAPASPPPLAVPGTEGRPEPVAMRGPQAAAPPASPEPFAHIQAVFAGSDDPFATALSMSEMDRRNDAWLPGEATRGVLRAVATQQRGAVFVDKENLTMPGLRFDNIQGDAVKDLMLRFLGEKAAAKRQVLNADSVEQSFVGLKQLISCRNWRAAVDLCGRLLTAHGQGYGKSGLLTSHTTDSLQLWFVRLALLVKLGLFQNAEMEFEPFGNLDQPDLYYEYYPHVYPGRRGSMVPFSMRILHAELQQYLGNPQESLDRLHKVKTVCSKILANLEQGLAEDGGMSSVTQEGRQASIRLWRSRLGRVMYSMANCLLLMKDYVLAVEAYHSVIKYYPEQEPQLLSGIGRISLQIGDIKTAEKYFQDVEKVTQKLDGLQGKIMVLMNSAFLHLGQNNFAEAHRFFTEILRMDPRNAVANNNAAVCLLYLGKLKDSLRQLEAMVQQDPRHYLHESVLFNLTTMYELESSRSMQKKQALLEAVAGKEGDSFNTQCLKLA
UniProt P36406: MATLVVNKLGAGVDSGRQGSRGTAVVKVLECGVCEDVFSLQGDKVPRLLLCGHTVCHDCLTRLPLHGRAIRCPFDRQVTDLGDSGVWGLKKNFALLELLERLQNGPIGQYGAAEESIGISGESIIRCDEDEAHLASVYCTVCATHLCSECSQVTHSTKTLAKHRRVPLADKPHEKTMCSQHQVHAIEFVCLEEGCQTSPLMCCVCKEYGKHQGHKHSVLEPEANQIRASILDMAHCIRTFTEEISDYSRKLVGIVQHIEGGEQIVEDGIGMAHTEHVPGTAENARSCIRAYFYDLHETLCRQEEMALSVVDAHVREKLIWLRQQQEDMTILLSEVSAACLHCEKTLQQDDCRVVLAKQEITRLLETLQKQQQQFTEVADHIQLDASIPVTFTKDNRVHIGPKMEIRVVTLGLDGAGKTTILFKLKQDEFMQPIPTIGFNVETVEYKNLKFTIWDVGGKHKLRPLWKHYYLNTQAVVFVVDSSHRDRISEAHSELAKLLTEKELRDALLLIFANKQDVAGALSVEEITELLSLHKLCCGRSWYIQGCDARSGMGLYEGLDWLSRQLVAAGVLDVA
UniProt Q969E8: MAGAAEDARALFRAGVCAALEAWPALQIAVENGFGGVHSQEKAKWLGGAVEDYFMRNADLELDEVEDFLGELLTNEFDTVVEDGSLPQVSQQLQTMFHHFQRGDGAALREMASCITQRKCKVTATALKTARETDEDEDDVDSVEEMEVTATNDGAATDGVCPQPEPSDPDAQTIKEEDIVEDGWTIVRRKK
UniProt Q5BVD1: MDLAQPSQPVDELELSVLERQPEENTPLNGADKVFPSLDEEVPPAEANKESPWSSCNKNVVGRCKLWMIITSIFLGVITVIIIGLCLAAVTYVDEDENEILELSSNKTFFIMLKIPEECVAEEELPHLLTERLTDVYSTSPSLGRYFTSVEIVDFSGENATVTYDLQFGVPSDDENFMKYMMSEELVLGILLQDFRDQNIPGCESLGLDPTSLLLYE
UniProt Q99816: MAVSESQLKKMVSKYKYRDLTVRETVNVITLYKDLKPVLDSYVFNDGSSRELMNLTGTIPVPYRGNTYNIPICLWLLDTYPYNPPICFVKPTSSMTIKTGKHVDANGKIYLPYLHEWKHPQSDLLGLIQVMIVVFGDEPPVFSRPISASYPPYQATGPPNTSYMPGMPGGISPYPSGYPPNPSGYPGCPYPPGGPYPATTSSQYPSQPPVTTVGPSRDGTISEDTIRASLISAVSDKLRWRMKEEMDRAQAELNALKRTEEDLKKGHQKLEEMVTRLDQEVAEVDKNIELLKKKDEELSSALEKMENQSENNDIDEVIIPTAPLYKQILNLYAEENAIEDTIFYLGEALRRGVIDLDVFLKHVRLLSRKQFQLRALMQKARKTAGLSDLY
UniProt P48553, whole entry, looked up: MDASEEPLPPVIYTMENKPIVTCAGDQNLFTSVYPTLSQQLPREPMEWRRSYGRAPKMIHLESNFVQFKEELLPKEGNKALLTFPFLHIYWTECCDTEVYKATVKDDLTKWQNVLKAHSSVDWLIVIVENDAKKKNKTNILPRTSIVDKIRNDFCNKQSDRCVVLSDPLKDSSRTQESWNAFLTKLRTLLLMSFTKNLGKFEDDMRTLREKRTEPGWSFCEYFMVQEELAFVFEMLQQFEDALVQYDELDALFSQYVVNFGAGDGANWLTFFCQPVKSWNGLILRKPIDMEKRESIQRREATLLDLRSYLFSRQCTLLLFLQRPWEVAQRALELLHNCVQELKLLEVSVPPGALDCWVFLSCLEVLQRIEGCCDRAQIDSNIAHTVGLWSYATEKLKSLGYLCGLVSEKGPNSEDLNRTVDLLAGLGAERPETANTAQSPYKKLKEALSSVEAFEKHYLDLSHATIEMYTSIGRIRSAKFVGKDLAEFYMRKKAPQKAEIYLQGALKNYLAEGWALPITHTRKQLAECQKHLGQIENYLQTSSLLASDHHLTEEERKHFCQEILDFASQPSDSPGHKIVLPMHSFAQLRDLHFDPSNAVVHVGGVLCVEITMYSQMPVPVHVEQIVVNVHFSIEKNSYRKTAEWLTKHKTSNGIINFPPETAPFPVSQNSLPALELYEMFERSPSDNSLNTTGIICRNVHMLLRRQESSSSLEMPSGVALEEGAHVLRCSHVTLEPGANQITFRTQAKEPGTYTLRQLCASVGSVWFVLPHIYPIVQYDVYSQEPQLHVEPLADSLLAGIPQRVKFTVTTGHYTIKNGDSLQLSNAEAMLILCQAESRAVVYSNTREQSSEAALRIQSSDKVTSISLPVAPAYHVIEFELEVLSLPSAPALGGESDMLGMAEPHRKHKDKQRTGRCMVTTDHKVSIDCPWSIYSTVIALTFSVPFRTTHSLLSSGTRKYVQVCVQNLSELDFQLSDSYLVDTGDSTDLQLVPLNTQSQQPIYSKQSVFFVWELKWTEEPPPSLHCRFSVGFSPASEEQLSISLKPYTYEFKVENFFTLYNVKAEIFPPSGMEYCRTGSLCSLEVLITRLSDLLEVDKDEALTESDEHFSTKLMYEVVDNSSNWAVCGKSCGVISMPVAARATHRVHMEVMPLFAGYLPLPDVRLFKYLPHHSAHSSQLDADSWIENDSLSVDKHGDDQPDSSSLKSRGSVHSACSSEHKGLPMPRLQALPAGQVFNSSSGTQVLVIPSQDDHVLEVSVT
UniProt Q2NL82: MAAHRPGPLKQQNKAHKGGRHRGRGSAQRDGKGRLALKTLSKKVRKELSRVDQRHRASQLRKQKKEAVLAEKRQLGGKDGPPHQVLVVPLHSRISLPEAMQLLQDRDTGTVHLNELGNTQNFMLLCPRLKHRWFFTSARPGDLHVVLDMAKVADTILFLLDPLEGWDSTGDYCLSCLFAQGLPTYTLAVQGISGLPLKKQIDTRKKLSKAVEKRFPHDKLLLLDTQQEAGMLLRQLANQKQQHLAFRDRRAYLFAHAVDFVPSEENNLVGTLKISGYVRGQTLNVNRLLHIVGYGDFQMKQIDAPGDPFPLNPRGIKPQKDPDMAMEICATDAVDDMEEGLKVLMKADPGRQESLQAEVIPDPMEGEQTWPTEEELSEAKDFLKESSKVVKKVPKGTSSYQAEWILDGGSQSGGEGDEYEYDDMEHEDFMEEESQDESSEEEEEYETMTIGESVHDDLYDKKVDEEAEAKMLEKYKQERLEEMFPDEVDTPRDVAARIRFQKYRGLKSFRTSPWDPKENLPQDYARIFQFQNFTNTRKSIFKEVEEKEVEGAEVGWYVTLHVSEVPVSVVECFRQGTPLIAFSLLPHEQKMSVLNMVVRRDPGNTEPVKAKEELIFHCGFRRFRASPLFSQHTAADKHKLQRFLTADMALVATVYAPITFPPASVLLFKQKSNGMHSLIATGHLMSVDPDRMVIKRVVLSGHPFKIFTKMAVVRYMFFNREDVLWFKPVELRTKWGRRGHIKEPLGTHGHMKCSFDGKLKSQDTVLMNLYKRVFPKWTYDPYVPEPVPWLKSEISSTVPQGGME
UniProt Q15650: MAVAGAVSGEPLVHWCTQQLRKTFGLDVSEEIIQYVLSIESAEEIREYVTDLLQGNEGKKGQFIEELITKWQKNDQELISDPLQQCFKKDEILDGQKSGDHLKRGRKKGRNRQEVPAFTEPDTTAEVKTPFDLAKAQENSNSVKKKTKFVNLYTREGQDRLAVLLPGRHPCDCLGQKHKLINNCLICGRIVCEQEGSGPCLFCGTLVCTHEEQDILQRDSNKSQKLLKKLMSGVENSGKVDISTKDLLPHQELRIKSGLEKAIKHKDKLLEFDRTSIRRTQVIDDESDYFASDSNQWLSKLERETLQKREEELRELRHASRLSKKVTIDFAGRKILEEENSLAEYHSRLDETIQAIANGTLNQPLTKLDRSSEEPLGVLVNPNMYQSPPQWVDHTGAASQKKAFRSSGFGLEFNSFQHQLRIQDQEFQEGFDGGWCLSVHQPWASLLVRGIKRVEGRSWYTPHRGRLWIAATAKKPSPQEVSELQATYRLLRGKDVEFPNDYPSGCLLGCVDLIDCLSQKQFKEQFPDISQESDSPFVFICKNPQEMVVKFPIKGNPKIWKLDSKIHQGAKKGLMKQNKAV
UniProt Q7Z4G4: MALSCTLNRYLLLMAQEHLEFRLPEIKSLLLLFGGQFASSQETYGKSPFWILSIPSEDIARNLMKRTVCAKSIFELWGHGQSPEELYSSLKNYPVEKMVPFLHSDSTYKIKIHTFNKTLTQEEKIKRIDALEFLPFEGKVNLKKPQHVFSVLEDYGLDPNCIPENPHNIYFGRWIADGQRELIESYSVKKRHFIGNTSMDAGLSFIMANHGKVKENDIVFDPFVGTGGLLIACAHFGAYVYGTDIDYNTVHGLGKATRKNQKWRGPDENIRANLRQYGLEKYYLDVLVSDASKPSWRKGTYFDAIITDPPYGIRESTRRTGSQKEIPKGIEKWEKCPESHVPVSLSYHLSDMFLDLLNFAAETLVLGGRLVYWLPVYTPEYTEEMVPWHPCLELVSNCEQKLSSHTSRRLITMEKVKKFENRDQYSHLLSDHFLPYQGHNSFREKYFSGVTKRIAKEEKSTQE
UniProt Q99614: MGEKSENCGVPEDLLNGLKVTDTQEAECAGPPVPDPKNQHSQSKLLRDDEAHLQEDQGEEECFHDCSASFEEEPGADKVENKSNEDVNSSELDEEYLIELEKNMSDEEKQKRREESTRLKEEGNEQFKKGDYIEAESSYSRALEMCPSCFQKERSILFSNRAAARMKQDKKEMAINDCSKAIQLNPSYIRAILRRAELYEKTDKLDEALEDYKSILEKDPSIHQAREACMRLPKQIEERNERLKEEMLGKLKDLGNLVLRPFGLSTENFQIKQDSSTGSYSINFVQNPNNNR
UniProt Q13114: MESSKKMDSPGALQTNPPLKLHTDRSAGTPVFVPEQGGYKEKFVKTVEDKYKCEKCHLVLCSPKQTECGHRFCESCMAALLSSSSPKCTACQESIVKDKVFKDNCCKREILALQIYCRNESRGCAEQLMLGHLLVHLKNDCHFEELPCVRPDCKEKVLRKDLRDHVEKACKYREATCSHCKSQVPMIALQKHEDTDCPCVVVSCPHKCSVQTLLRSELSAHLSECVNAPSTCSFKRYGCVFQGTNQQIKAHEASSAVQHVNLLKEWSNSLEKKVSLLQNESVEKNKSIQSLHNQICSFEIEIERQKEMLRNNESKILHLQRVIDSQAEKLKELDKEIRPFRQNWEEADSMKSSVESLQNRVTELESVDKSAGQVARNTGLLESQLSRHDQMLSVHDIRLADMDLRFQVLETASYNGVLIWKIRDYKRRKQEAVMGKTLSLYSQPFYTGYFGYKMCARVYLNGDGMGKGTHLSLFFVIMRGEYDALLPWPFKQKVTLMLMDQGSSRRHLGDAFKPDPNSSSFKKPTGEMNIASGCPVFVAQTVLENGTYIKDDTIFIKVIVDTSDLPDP

What all share (assay): log2 fold change, soluble protein after heating vs DMSO (PISA); higher = thermal stabilisation; K562 lysate, 10 uM; active = over 0.2 and 3.5 SD of the protein, either way, in both replicates (recomputed)
Compound in test [1]: NCC(=O)Nc1ccc(-n2nc(C(F)(F)F)cc2-c2ccc3c(ccc4ccccc43)c2)cc1
A digest of the protocol:
(§1)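 K562 pellets were dounce-homogenised in PBS pH 7.4 with 1 mM MgCl2, and the crude extract at 1 mg/mL protein was treated with 10 μM compound for 30 min. Aliquots were heated for 3 min across 48°C-58°C, pooled, and brought to 0.5% NP-40 at 4°C; soluble protein was the supernatant after 21,000xg for 90 min. Soluble protein was quantified by TMTpro 16plex LC-MS/MS with channel sums equalised, and reported as log2 fold change in thermal stability against DMSO controls, with values from duplicates.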

Compound in another test: O=C(CCCCCCC(=O)Nc1ccccc1)NO [vorinostat]
Put shortly: as §1

Compound in another test: O=C(O)c1ccc2c(c1)nc(Nc1cccc(Cl)c1)c1ccncc12 [silmitasertib]
Put shortly: as §1

Compound in test [2]: O=C1NC(=O)C(c2cnc3ccccn23)=C1c1cn2c3c(cc(F)cc13)CN(C(=O)N1CCCCC1)CC2
A digest of the protocol:
as §1

Compound in a further test: c1cn2cc(-c3ccc4cn[nH]c4c3)nc(Nc3ccc(N4CCOCC4)cc3)c2n1 [entospletinib]
A digest of the protocol: as §1

This is one part of the list.

Regarding TRIOBP (UniProt Q9H2D6), the log2 fold change is inactive: -0.081 in test [1]; inactive: 0.002 with vorinostat; inactive: 0.004 with silmitasertib; inactive: -0.024 in test [2]; inactive: -0.01 with entospletinib.
With TRIM28 (UniProt Q13263), the log2 fold change in test [1] is inactive: 0.005; with vorinostat it was inactive: 0.053; with silmitasertib it was inactive: -0.009; in test [2], inactive: 0.003; with entospletinib it was inactive: 0.012.
With TSTD2 (UniProt Q5T7W7), the log2 fold change is inactive: -0.086 in test [1], inactive: -0.263 in the test with vorinostat and inactive: 0.083 in the test with silmitasertib.
On to TRAPPC12 (UniProt Q8WVT3), for which the log2 fold change is inactive: 0.032 in test [1]; active: -0.258 with vorinostat; inactive: 0.005 with silmitasertib; inactive: 0.043 in test [2]; inactive: -0.001 in the test with entospletinib.
As for TRMT61A (UniProt Q96FX7), the log2 fold change in test [1] was inactive: 0.018; with vorinostat it was inactive: 0.059; with silmitasertib, inactive: -0.06; in test [2], inactive: 0.014; with entospletinib it was inactive: -0.035.
For the target TTC27 (UniProt Q6P3X3), the log2 fold change was inactive: -0.027 in test [1]; active: -0.403 with vorinostat; inactive: 0.053 in the test with silmitasertib; inactive: -0.06 in test [2]; inactive: -0.002 with entospletinib.
The like results for TRIM23 (UniProt P36406) were, in that order, inactive: 0.064, inactive: 0.073, inactive: -0.03, inactive: -0.02 and inactive: -0.032.
Regarding TSR2 (UniProt Q969E8), the log2 fold change was inactive: 0.013 in test [1]; inactive: 0.007 in the test with vorinostat; inactive: 0.009 in the test with silmitasertib; inactive: -0.035 in test [2]; inactive: 0.003 with entospletinib.
The like results for TTMP isoform 3 (UniProt Q5BVD1) were, in that order, inactive: 0.253, inactive: 0.191, inactive: -0.074, inactive: 0.167 and inactive: -0.032.
For the target TTC28 (UniProt Q96AY4), the log2 fold change was inactive: -0.155 in test [1], inactive: -0.389 with vorinostat, inactive: 0.127 with silmitasertib and inactive: -0.011 in test [2].
With TRRAP (UniProt Q9Y4A5), the log2 fold change was inactive: -0.019 in test [1]; inactive: -0.179 in the test with vorinostat; inactive: 0.022 with silmitasertib; inactive: 0.01 in test [2]; inactive: 0.001 with entospletinib.
As for TSG101 (UniProt Q99816), the log2 fold change was inactive: 0.037 in test [1]; inactive: -0.092 in the test with vorinostat; inactive: 0.002 with silmitasertib; inactive: -0.013 in test [2]; inactive: -0.022 with entospletinib.
For TRIP13 (UniProt Q15645), in that order: inactive: 0.002, active: -0.472, inactive: 0.061, inactive: -0.002 and inactive: 0.022.
In the case of TRAM1 (UniProt Q15629), the log2 fold change in test [1] was inactive: -0.185; in the test with vorinostat, inactive: 0.168; with silmitasertib it was inactive: 0.033; in test [2] it was inactive: 0.082; with entospletinib it was inactive: 0.044.
For TSC2 isoform 4 (UniProt P49815), in that order: inactive: 0.024, inactive: -0.154, inactive: -0.064, inactive: 0.067 and inactive: 0.005.
For TRMT10C (UniProt Q7L0Y3), in that order: inactive: 0.024, inactive: -0.248, inactive: 0.024, inactive: 0.014 and inactive: -0.015.
The like results for TRAF4 (UniProt Q9BUZ4) were, in that order, inactive: -0.063, inactive: -0.213, inactive: 0.125, inactive: 0.023 and inactive: 0.03.
With TRIM33 isoform 2 (UniProt Q9UPN9), the log2 fold change in test [1] is inactive: -0.005; in the test with vorinostat, active: -0.393; in the test with silmitasertib, inactive: -0.026; in test [2], inactive: -0.04; in the test with entospletinib it was inactive: -0.024.
For TRAPPC10 (UniProt P48553), in that order: inactive: 0.015, active: -0.248, inactive: 0.005, inactive: 0.049 and inactive: 0.
Consider TSR1 (UniProt Q2NL82), for which the log2 fold change in test [1] is inactive: 0.012; in the test with vorinostat it was inactive: -0.089; with silmitasertib it was inactive: 0.043; in test [2], inactive: 0.043; in the test with entospletinib, inactive: 0.012.
For the target TRIP4 (UniProt Q15650), the log2 fold change was inactive: -0.031 in test [1]; inactive: -0.139 in the test with vorinostat; inactive: 0.011 in the test with silmitasertib; inactive: -0.024 in test [2]; inactive: 0 in the test with entospletinib.
In the case of TRIM27 (UniProt P14373), the log2 fold change in test [1] was inactive: -0.136; with vorinostat, inactive: -0.135; with silmitasertib, inactive: -0.102; in test [2] it was inactive: 0.01.
Consider TRMT11 (UniProt Q7Z4G4), for which the log2 fold change is inactive: -0.032 in test [1]; inactive: -0.004 with vorinostat; inactive: 0.016 with silmitasertib; inactive: 0.001 in test [2]; inactive: -0.015 with entospletinib.
For the target TRAF6 (UniProt Q9Y4K3), the log2 fold change is inactive: 0.047 in test [1]; inactive: 0.054 in the test with vorinostat; inactive: -0.018 with silmitasertib; inactive: -0.026 in test [2]; inactive: -0.043 in the test with entospletinib.
Take TTC1 (UniProt Q99614): the log2 fold change is inactive: -0.011 in test [1]; inactive: 0.086 in the test with vorinostat; inactive: -0.001 in the test with silmitasertib; inactive: -0.032 in test [2]; inactive: -0.003 with entospletinib.
As for TSFM (UniProt P43897), the log2 fold change is inactive: 0.002 in test [1]; active: -0.261 with vorinostat; inactive: 0.043 in the test with silmitasertib; inactive: 0.035 in test [2]; inactive: -0.014 with entospletinib.
For TRAF3 (UniProt Q13114), in that order: inactive: 0.074, inactive: -0.308, inactive: -0.116, inactive: -0.005 and inactive: 0.033.
